The values that follow come from paper PMC6499816, “Molecular determinants regulating selective binding of autophagy adapters and receptors to ATG8 proteins” (Nature Communications, 2019).

The chains behind the UniProt entries cited, without tags or fusion partners. Where a name states a change or a piece, a line headed by the entry shows the natural chain unless it says otherwise. A line that says so, or that is headed by a name, gives the form on record, which may keep a tag or linker. Residues count along the entry.
UniProt Q9BXW4, residues 1-126: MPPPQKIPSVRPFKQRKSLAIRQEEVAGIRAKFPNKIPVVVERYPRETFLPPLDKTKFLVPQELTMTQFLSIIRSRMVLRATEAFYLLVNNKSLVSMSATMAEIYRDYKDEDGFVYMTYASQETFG
GFP-PCM1 wild type (Q15154-5, form named): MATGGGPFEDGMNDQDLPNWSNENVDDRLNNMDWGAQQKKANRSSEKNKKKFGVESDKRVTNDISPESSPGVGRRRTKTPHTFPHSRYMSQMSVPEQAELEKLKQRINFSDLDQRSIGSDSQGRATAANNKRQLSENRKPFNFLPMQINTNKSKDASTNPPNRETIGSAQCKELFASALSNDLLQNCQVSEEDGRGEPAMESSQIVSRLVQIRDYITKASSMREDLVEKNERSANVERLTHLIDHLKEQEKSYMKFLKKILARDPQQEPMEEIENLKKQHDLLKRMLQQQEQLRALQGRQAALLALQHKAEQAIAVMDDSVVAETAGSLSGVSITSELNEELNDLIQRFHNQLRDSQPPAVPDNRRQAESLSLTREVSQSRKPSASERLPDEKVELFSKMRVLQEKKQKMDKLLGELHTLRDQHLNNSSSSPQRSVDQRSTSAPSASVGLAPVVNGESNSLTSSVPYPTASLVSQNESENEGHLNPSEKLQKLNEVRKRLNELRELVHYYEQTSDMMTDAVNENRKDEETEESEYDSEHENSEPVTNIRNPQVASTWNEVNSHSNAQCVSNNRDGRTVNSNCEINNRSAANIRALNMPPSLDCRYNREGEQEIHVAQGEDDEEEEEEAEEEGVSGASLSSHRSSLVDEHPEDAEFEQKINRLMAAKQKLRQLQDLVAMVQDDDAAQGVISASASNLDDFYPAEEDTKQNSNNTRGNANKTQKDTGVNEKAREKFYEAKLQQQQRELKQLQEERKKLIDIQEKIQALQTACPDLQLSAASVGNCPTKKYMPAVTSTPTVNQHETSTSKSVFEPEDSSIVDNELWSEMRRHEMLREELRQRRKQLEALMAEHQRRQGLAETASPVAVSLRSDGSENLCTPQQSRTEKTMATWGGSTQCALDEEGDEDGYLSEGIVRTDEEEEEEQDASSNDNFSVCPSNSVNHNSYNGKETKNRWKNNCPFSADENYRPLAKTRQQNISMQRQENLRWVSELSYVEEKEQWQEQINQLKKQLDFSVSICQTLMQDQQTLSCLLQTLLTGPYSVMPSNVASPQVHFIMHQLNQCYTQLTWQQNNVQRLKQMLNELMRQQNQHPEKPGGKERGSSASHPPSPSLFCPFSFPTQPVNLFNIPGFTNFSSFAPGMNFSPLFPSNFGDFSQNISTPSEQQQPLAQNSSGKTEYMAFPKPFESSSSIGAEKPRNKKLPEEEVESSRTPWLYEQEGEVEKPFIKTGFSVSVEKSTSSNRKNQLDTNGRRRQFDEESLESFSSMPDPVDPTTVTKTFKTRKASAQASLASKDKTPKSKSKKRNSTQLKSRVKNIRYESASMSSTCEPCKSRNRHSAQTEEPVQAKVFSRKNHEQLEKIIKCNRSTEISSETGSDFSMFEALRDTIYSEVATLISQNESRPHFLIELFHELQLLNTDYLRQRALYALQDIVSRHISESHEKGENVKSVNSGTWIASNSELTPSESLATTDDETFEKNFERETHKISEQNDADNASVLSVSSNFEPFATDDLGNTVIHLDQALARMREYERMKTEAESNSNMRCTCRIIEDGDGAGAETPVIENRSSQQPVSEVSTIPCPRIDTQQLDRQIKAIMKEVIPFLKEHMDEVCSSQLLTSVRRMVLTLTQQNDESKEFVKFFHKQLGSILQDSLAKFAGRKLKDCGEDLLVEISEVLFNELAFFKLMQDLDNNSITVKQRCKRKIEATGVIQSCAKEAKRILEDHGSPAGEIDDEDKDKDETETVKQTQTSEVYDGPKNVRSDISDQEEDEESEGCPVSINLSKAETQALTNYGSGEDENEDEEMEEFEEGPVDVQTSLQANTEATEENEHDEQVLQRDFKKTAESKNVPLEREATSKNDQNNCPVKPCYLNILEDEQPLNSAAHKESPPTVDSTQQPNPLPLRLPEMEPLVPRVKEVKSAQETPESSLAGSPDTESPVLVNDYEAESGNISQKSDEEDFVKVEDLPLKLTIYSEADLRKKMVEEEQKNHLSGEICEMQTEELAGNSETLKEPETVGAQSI
GFP-PCM1 D1954A/F1955A/V1958A (Q15154-5, form named): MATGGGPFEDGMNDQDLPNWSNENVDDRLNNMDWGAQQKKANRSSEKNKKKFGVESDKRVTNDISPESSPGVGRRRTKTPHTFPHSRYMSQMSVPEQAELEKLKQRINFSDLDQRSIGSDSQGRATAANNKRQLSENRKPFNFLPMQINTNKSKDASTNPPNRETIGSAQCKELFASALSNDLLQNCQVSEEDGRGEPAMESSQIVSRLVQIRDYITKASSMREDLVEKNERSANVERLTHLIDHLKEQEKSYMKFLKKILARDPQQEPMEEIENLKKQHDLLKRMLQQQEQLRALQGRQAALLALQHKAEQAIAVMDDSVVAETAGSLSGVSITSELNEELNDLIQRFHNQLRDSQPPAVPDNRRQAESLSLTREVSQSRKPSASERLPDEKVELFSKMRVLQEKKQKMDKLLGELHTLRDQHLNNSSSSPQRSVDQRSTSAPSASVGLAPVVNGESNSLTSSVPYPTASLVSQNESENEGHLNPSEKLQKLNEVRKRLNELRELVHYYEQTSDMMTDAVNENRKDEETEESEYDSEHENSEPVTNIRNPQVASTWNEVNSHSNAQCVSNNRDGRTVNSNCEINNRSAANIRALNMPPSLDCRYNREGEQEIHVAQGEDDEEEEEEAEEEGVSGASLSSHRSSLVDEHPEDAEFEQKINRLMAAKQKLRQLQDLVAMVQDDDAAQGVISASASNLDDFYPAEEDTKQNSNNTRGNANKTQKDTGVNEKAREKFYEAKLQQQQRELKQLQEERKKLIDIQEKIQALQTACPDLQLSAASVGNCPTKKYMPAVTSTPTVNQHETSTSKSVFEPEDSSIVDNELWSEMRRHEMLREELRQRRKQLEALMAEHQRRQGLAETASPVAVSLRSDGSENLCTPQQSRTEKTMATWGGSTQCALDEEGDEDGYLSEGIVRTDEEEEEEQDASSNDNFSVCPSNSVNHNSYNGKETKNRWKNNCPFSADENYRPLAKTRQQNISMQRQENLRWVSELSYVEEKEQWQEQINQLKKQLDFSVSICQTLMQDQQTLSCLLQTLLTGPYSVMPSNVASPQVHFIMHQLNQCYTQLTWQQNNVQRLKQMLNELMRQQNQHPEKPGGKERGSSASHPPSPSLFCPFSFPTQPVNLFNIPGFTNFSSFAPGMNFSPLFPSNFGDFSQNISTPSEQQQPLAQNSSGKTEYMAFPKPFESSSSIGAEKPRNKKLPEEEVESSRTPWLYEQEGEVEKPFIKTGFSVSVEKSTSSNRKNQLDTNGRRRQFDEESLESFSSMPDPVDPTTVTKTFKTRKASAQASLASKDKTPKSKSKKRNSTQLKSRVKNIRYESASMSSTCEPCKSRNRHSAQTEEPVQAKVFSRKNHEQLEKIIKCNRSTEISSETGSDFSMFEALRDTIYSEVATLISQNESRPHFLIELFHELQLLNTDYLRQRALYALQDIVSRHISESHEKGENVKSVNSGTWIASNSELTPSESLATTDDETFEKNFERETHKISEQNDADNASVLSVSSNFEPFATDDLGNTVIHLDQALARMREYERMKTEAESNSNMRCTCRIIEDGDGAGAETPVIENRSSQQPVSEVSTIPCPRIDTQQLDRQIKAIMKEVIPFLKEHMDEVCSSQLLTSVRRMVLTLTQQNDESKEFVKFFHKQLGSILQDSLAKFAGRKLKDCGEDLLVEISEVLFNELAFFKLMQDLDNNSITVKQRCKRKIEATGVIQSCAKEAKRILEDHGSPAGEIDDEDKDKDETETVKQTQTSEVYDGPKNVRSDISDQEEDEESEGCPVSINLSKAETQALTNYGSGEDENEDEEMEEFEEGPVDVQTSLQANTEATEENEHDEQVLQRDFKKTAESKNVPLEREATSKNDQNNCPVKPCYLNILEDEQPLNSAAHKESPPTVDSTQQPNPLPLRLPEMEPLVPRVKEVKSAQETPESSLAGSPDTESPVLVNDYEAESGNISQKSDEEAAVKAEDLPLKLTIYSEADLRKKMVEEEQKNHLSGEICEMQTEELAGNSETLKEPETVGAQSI
GFP-PCM1 K1957I (Q15154-5, form named): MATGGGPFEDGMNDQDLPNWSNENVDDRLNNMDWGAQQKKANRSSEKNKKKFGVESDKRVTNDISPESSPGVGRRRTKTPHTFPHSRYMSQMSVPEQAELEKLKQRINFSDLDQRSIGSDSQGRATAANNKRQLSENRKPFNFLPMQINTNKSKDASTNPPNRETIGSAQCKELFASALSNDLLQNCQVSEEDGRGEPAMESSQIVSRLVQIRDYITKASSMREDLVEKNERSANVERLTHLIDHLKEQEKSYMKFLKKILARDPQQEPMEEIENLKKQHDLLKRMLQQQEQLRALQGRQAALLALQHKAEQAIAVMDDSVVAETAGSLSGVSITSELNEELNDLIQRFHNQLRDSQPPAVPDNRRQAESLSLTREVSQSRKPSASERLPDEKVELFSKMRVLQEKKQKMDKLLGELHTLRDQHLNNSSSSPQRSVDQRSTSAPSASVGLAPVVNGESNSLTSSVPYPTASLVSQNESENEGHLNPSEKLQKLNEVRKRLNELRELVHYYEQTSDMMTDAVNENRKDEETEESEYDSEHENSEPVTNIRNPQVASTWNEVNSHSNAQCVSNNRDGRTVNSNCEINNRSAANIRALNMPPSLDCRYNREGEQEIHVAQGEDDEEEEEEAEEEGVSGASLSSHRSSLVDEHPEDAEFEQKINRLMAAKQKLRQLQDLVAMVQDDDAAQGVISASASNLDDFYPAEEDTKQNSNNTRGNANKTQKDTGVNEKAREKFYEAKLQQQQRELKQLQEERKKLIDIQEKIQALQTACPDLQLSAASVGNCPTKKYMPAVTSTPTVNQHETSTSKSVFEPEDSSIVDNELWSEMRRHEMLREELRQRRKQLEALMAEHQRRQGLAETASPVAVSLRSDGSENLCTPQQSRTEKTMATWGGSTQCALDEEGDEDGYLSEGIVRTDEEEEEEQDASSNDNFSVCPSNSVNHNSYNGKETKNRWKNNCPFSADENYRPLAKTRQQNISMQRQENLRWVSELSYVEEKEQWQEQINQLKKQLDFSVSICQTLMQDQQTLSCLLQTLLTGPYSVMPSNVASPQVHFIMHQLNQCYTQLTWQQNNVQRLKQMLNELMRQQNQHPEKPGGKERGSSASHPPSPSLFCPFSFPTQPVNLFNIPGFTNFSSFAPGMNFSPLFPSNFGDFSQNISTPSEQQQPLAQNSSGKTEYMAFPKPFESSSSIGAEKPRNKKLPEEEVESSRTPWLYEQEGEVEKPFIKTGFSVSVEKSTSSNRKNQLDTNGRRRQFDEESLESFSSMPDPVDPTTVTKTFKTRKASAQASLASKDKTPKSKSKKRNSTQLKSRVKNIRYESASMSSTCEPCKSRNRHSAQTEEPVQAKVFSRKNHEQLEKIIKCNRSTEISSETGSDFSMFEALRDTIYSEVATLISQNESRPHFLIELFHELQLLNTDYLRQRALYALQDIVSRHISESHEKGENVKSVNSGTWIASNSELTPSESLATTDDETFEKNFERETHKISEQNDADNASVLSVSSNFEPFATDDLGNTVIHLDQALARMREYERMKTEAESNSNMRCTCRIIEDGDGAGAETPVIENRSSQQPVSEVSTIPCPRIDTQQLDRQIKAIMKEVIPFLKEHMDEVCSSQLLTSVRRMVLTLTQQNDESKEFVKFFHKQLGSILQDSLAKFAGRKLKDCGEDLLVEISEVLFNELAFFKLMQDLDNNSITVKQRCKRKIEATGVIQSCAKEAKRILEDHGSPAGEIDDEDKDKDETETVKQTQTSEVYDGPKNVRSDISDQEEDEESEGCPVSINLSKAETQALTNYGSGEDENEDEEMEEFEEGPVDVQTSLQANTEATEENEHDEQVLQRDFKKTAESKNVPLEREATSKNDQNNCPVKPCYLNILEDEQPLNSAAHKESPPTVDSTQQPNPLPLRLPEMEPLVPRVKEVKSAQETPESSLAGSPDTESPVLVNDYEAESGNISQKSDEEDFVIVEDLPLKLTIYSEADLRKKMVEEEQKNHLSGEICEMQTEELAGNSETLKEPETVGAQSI

No constants are given. Whether binding was seen depends on the method and setting. Binding seen in cells or lysates may run through a third protein. Some results given as binding are weak or reduced against the parent protein; the word gives no strength.

One assay concerns the target MYC-GABARAP-L2 (human) (UniProt P60520). Description: co-IP; MYC-Trap beads, lysates of HEK293A cells expressing MYC-ATG8 constructs, TNTE buffer, 2 h at 4 °C; immunoblot of bound proteins. Background: In western blotting, separated proteins are transferred to a membrane and probed.
The next assay has as its target MYC-LC3A (human) (UniProt Q9H492). The assay is described as above.
The next assay concerns the target MYC-LC3C (human) (UniProt Q9BXW4). The assay is described as above.
The next assay addresses GST-GABARAP-L2 (human) (UniProt P60520). Description: pull-down; 50 µg GST-ATG8 on Glutathione-Sepharose 4B beads, HEK293A lysate overnight at 4 °C, washes in TNTE; immunoblot; only the target purified.
In the next assay the target is GST-LC3A (human) (UniProt Q9H492). The assay is described as above.
In another assay the target is GST-LC3C (human) (UniProt Q9BXW4). The assay is described as above.
The target in the next assay is MYC-GABARAP (human) (UniProt O95166). The assay is described as follows: co-IP; MYC-Trap beads, lysates of HEK293A cells expressing MYC-ATG8 constructs, TNTE buffer, 2 h at 4 °C; immunoblot of bound proteins.
The next assay deals with GFP-GABARAP (human) (UniProt O95166). Description: co-IP; GFP-TRAP beads, lysates of HEK293A cells expressing GFP-GABARAP or GFP-LC3B constructs, TNTE buffer, 2 h at 4 °C; immunoblot of endogenous proteins, quantified.
The target in assay [1] is GFP-GABARAP E8R/H9R (human) (UniProt O95166). Described as above.
A further assay deals with GFP-GABARAP Q59E (human) (UniProt O95166). Described as above.

Take “PCM1 (pericentriolar material 1) (from UniProt Q15154-5 1-2016)”: the binding entry was “binds” in the assay with MYC-GABARAP-L2 (human), “binds weakly” in the assay with MYC-LC3A (human) and “binds” in the assay with MYC-LC3C (human).

In the case of “GFP-PCM1 D1954A/F1955A/V1958A (from UniProt Q15154-5 1-2016)”, the binding result in the assay with GST-GABARAP-L2 (human), with GST-LC3A (human) and in the assay with GST-LC3C (human) was “no binding” in each case.

For “GFP-PCM1 wild type (from UniProt Q15154-5 1-2016)”, the binding entry in the assay with GST-GABARAP-L2 (human) and in the assay with GST-LC3C (human) was “binds” in each case.

“GFP-PCM1 K1957I (from UniProt Q15154-5 1-2016)”: the binding result with GST-GABARAP-L2 (human), with GST-LC3A (human) and with GST-LC3C (human) was “binds” in each case.

With “p62 (SQSTM1) (from UniProt Q13501 1-440)”, the binding result with MYC-GABARAP-L2 (human), with MYC-LC3A (human) and with MYC-LC3C (human) was “binds” each time.

For FIP200 (from UniProt Q8TDY2 1-1594), the binding entry in the assay with MYC-GABARAP (human) is “binds”; in the assay with MYC-GABARAP-L2 (human) it was “binds”; in the assay with MYC-LC3A (human) it was “binds weakly”; in the assay with MYC-LC3C (human), “binds”; in the assay with GFP-GABARAP (human) it was “binds”; in assay [1], “binds”. For the same substance, the binding result with GFP-GABARAP Q59E (human) is reported as “binds”.
